According to article PMC9360619:
No constants are given. Whether binding was seen depends on the method and setting. In cells and extracts the contact can be indirect. Some binding calls cover weakened binding; strength is not graded here.

Protein sequences, listed by entry. Tags and fused reporters are not part of them. Residues count along the entry.
UniProt P08581, residues 25-1390: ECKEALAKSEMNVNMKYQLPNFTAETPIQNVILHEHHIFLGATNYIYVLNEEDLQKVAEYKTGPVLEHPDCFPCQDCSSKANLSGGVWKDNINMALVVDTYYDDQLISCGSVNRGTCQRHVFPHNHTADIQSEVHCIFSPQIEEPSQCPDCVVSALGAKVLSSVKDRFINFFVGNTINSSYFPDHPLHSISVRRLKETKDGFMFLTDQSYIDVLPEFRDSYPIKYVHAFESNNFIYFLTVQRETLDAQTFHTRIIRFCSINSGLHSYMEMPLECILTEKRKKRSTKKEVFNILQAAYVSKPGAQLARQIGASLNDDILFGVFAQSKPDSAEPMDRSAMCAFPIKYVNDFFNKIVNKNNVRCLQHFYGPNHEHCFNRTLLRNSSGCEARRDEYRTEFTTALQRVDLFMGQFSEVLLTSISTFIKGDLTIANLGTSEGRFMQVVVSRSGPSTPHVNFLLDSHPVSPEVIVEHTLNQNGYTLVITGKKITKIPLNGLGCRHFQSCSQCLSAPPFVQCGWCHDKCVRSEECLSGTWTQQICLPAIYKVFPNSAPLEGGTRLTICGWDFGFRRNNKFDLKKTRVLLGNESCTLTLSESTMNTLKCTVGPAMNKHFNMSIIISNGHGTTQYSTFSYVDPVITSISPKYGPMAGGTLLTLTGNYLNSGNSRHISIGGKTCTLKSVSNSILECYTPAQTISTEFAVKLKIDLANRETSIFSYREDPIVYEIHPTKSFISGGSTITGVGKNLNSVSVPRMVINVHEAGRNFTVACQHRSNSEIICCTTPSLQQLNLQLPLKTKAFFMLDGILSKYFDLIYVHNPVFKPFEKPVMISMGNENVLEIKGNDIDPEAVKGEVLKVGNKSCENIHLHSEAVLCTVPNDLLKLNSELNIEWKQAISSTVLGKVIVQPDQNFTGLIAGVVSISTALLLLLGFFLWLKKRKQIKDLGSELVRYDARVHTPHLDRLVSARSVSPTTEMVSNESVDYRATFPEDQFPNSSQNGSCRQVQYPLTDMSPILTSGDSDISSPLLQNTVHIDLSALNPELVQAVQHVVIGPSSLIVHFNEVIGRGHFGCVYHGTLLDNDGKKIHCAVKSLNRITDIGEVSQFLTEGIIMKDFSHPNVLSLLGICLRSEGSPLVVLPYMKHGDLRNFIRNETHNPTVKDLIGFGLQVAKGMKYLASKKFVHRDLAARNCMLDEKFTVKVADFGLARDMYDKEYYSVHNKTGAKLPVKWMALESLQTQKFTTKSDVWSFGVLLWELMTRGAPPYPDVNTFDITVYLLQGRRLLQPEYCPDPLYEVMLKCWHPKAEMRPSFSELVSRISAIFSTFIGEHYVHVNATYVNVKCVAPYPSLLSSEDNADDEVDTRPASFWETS

Target: c-Met (human (endogenous in U87 and HUVEC)) (UniProt P08581)
Assay: co-IP; lysates in RIPA buffer with protease inhibitors, precleared with protein A/G agarose, anti-c-Met antibody-conjugated beads overnight at 4°C, blot for p62; U87 cells and HUVECs with or without paeoniflorin (10 μM in U87, 20 μM in HUVECs, 24 h); also U87 cells transfected with HA-Ub (WT), HA-UbK48, HA-UbK63 or HA-UbKO and treated with 20 μM paeoniflorin

binding: binds
Substance: p62 (from UniProt Q13501 1-440)
